PubChem BioAssay AID1671195 – Yale University – 2021
Assay: 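Regulators of LDL receptor activity judged by labelled LDL uptake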 (primary screen). System: human Huh7 hepatoma cells. Reagent: siRNA pool against human genes, 18 nM. Timing: about 2 to 2.5 days of knockdown, then 8 h LDL uptake. Treatment: DiI-labelled LDL at 30 µg/ml for 8 h, in lipoprotein-deficient serum medium. Measured: 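Per-cell DiI-LDL intensity by automated imaging; well means scaled to the plate median and given as a robust z-score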. Reading the numbers: robust z-score: higher = more LDL uptake after knockdown. Hit rule: 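Active when two or more replicates show a robust z-score above 2 or below -2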.
Here is one part, drawn at random, of about 22,000 reagents tested. Of all reagents, about 1,510 (6.9%) are marked active. 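Active includes knockdowns raising or lowering LDL uptake; positive z-scores mean more uptake, negative mean less.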 Reagents against one gene are numbered here.

For KIFC2 the deposit lists robust z-score, replicate 1 = -0.318; robust z-score, replicate 2 = -1.25; robust z-score, replicate 3 = -0.588; inactive. Silencing of LOC283166 (retired record) gave: robust z-score, replicate 1 = 0.0816; robust z-score, replicate 2 = 0.297; robust z-score, replicate 3 = 0.381; inactive. OGN showed robust z-score, replicate 1 = -0.0167; robust z-score, replicate 2 = 0.549; robust z-score, replicate 3 = -0.374; inactive. For NFIX the deposit lists robust z-score, replicate 1 = 1.42; robust z-score, replicate 2 = 0.53; robust z-score, replicate 3 = 1.08; inactive. Against PRPS2, the entry reads robust z-score, replicate 1 = -1.62; robust z-score, replicate 2 = -0.891; robust z-score, replicate 3 = -1.06; inactive. After knock-down of EPS15, the screen gave robust z-score, replicate 1 = -0.398; robust z-score, replicate 2 = -0.421; robust z-score, replicate 3 = -0.309; inactive.

For HNF4G, the entry reads robust z-score, replicate 1 = 1.03; robust z-score, replicate 2 = 0.469; robust z-score, replicate 3 = 0.873; inactive. For CEP128 the deposit lists robust z-score, replicate 1 = 0.557; robust z-score, replicate 2 = 0.355; robust z-score, replicate 3 = 0.226; inactive. Against SFTPD the deposit lists robust z-score, replicate 1 = -0.345; robust z-score, replicate 2 = -1.62; robust z-score, replicate 3 = -0.307; inactive. PLEKHG7 #1 gave robust z-score, replicate 1 = 0.672; robust z-score, replicate 2 = 0.612; robust z-score, replicate 3 = 1.23; inactive. After knock-down of PLEKHG7 #2, the record shows robust z-score, replicate 1 = -0.639; robust z-score, replicate 2 = -0.608; robust z-score, replicate 3 = -0.287; inactive. Depletion of PRSS38 gave: robust z-score, replicate 1 = -1.29; robust z-score, replicate 2 = -0.58; robust z-score, replicate 3 = -1.04; inactive.

FZD1 showed robust z-score, replicate 1 = -2.04; robust z-score, replicate 2 = 4.26; robust z-score, replicate 3 = 1.57; inactive. After knock-down of LMF1, the screen gave robust z-score, replicate 1 = -0.865; robust z-score, replicate 2 = -0.715; robust z-score, replicate 3 = -0.574; inactive. For PKN2, the values are robust z-score, replicate 1 = 1.44; robust z-score, replicate 2 = 1.98; robust z-score, replicate 3 = 1.58; inactive. TWIST1 scored robust z-score, replicate 1 = 0.00446; robust z-score, replicate 2 = -0.306; robust z-score, replicate 3 = -1.02; inactive.

A portion from the list above:
NFIX — robust z-score, replicate 1 = 1.42; robust z-score, replicate 2 = 0.53; robust z-score, replicate 3 = 1.08; Call = inactive
PRPS2 — robust z-score, replicate 1 = -1.62; robust z-score, replicate 2 = -0.891; robust z-score, replicate 3 = -1.06; Call = inactive
EPS15 — robust z-score, replicate 1 = -0.398; robust z-score, replicate 2 = -0.421; robust z-score, replicate 3 = -0.309; Call = inactive

Further results follow:
Silencing of HOXC5 came out at: robust z-score, replicate 1 = 0.631; robust z-score, replicate 2 = 0.573; robust z-score, replicate 3 = 1.16; inactive. Silencing of LINC01600 resulted in: robust z-score, replicate 1 = -0.829; robust z-score, replicate 2 = -0.549; robust z-score, replicate 3 = -1.12; inactive. KIF1A showed robust z-score, replicate 1 = -1.64; robust z-score, replicate 2 = -1.35; robust z-score, replicate 3 = -1.16; inactive. GMDS scored robust z-score, replicate 1 = 1.41; robust z-score, replicate 2 = 1.36; robust z-score, replicate 3 = 1.33; inactive. LOC440310 (retired record) gave robust z-score, replicate 1 = 0.824; robust z-score, replicate 2 = 0.478; robust z-score, replicate 3 = 0.926; inactive. After knock-down of RPL31P28, the screen gave robust z-score, replicate 1 = -0.259; robust z-score, replicate 2 = -0.449; robust z-score, replicate 3 = -0.293; inactive.

After knock-down of USO1, the record shows robust z-score, replicate 1 = -0.8; robust z-score, replicate 2 = 1.15; robust z-score, replicate 3 = -0.071; inactive. With knock-down of ACSM6 the results were robust z-score, replicate 1 = 0.00517; robust z-score, replicate 2 = -1.32; robust z-score, replicate 3 = -0.376; inactive.
